Patent publication US9087996B2, “Fluorine-containing aromatic compound and production method thereof” (Asahi Glass Company, Limited, priority 2012, dated 2015)

Assay: Property evaluation of deposition-type organic semiconductor material (vacuum-deposited FET element)
Details: vacuum-deposited film, top-contact bottom-gate FET, saturated region, under vacuum

| Structure (SMILES) | Carrier mobility (field effect mobility) |
| --- | --- |
| FC(F)(F)c1c2cc3ccccc3cc2c(C(F)(F)F)c2cc3ccccc3cc12 [Compound (o)] | 2.1×10^−3 cm^2/V·s |
| FC(F)(F)c1c2ccccc2c(C(F)(F)F)c2cc3c(C(F)(F)F)c4ccccc4c(C(F)(F)F)c3cc12 [Compound (r)] | 4.5×10^−6 cm^2/V·s |
